Read-outs that look alike come from different tables or passages of the source.
Key:
[1] = Photoinduced potential of photoinitiator system containing the donor (pH electrode, mV); format: physicochemical
[2] = Vinyl ether homopolymerization PDSC with and without EDMAB (Table 2)
Description: For the experiments reported in Table 2, the photopolymerization of various vinyl ethers with and without the use of an electron donor to promote the reaction are reported. Data showing runs where EDMAB was used to promote the reaction are shown in parentheses after the numbers corresponding to runs without EDMAB.

[3] = 0.10 wt % donor added to 1 gram resin, 37° C., >418 nm
[4] = 0.37 wt % donor added to 1 gram resin
[5] = 0.53 wt % donor added to 1 gram resin

CN(C)c1cccc(C(=O)O)c1 [3-DMABA, 3-dimethylamino benzoic acid]
Enthalpy ΔH [3]: 382 J/g | Induction Time [3]: 19 s | Time to Exotherm Peak Max. [3]: 30 s | Photoinduced Potential [1]: 115 mV

CN(C)c1ccc(C(=O)O)cc1 [4-DMABA, 4-dimethylaminobenzoic acid]
Enthalpy ΔH [3]: 513 J/g | Induction Time [3]: 15 s | Time to Exotherm Peak Max. [3]: 22 s | Photoinduced Potential [1]: 184 mV

CN(C)c1ccc(CCO)cc1 [4-DMAPE]
Enthalpy ΔH [3]: 480 J/g | Induction Time [3]: 38 s | Time to Exotherm Peak Max. [3]: 280 s | Photoinduced Potential [1]: 17 mV

C=COCCCCO [BDVE, butanediol vinyl ether]
Conversion at Max. ([2]; with EDMAB): 45% | Enthalpy ([2]; with EDMAB): 10.30 kcal/mole eq | Induction Time ([2]; with EDMAB): 103 s | Time to Max. ([2]; with EDMAB): 176 s | Enthalpy ([2]; with EDMAB (parentheses)): 371 J/g | Conversion at Max. ([2]; without EDMAB): 34% | Enthalpy ([2]; without EDMAB): 10.27 kcal/mole eq | Induction Time ([2]; without EDMAB): 381 s | Time to Max. ([2]; without EDMAB): 537 s | Enthalpy ([2]; without EDMAB, OPIA/CQ, 37° C.): 370 J/g

C=COCC1CCC(COC=C)CC1 (stereo not shown) [CHDMDVE, 1,4-cyclohexanedimethanol divinyl ether]
Conversion at Max. ([2]; with EDMAB): 24% | Enthalpy ([2]; with EDMAB): 3.40 kcal/mole eq | Induction Time ([2]; with EDMAB): 30 s | Time to Max. ([2]; with EDMAB): 76 s | Enthalpy ([2]; with EDMAB (parentheses)): 145 J/g | Conversion at Max. ([2]; without EDMAB): 57% | Enthalpy ([2]; without EDMAB): 7.74 kcal/mole eq | Induction Time ([2]; without EDMAB): 123 s | Time to Max. ([2]; without EDMAB): 204 s | Enthalpy ([2]; without EDMAB, OPIA/CQ, 37° C.): 330 J/g

C=COCCOCCOC=C [DEGDVE, di(ethylene glycol)divinyl ether]
Conversion at Max. ([2]; with EDMAB): 30% | Enthalpy ([2]; with EDMAB): 6.39 kcal/mole eq | Induction Time ([2]; with EDMAB): 37 s | Time to Max. ([2]; with EDMAB): 113 s | Enthalpy ([2]; with EDMAB (parentheses)): 33 J/g | Conversion at Max. ([2]; without EDMAB): 44% | Enthalpy ([2]; without EDMAB): 10.44 kcal/mole eq | Induction Time ([2]; without EDMAB): 58 s | Time to Max. ([2]; without EDMAB): 121 s | Enthalpy ([2]; without EDMAB, OPIA/CQ, 37° C.): 539 J/g

CN(C)c1ccccc1 [DMA, N,N-dimethylaniline]
Photoinduced Potential [1]: 54 mV

CN(C)c1ccc(C(=O)C(O)c2ccccc2)cc1 (stereo not shown) [DMAB, 4-dimethylaminobenzoin]
Enthalpy ΔH [3]: 450 J/g | Induction Time [3]: 22 s | Time to Exotherm Peak Max. [3]: 73 s | Photoinduced Potential [1]: 261 mV

CN(C)c1ccc(C=O)cc1 [DMABAL]
Enthalpy ΔH [3]: 495 J/g | Induction Time [3]: 16 s | Time to Exotherm Peak Max. [3]: 27 s | Photoinduced Potential [1]: 245 mV

CCOC(=O)c1ccc(N(C)C)cc1 [EDMAB, ethyl 4-dimethylaminobenzoate]
Enthalpy ΔH [3]: 434 J/g | Induction Time [3]: 10 s | Time to Exotherm Peak Max. [3]: 13 s | Enthalpy ΔH [4]: 436 J/g | Induction Time [4]: 11 s | Time to Exotherm Peak Max. [4]: 16 s | Enthalpy ΔH [5]: 161 J/g | Induction Time [5]: 11 s | Time to Exotherm Peak Max. (0.53 wt % donor, first (major) peak of bimodal exotherm): 13 s | Photoinduced Potential [1]: 200 mV

C=COCCOC=C [EGDVE, ethylene glycol divinyl ether]
Conversion at Max. ([2]; with EDMAB): 18% | Enthalpy ([2]; with EDMAB): 5.06 kcal/mole eq | Induction Time ([2]; with EDMAB): 12 s | Time to Max. ([2]; with EDMAB): 14 s | Enthalpy ([2]; with EDMAB (parentheses)): 371 J/g | Conversion at Max. ([2]; without EDMAB): 50% | Enthalpy ([2]; without EDMAB): 6.45 kcal/mole eq | Induction Time ([2]; without EDMAB): 52 s | Time to Max. ([2]; without EDMAB): 89 s | Enthalpy ([2]; without EDMAB, OPIA/CQ, 37° C.): 473 J/g

C=COCC1CO1 (stereo not shown) [GVE, glycidyl vinyl ether]
Conversion at Max. ([2]; with EDMAB): 51% | Enthalpy ([2]; with EDMAB): 5.13 kcal/mole eq | Induction Time ([2]; with EDMAB): 56 s | Time to Max. ([2]; with EDMAB): 242 s | Enthalpy ([2]; with EDMAB (parentheses)): 429 J/g | Conversion at Max. ([2]; without EDMAB): 48% | Enthalpy ([2]; without EDMAB): 9.53 kcal/mole eq | Induction Time ([2]; without EDMAB): 78 s | Time to Max. ([2]; without EDMAB): 284 s | Enthalpy ([2]; without EDMAB, OPIA/CQ, 37° C.): 797 J/g

O=C(O)CNc1ccccc1 [NPG, N-phenylglycine]
Enthalpy ΔH [3]: 348 J/g | Induction Time [3]: 12 s | Time to Exotherm Peak Max. [3]: 19 s | Photoinduced Potential [1]: 161 mV

C=COCCOCCOCCOC=C [TEGDVE, tri(ethylene glycol)divinyl ether]
Conversion at Max. ([2]; with EDMAB): 19% | Enthalpy ([2]; with EDMAB): 12.70 kcal/mole eq | Induction Time ([2]; with EDMAB): 17 s | Time to Max. ([2]; with EDMAB): 20 s | Enthalpy ([2]; with EDMAB (parentheses)): 526 J/g | Conversion at Max. ([2]; without EDMAB): 13% | Enthalpy ([2]; without EDMAB): 10.07 kcal/mole eq | Induction Time ([2]; without EDMAB): 59 s | Time to Max. ([2]; without EDMAB): 70 s | Enthalpy ([2]; without EDMAB, OPIA/CQ, 37° C.): 417 J/g

COc1ccc(OC)c(OC)c1 [TMB, 1,2,4-trimethoxybenzene]
Enthalpy ΔH [3]: 215 J/g | Induction Time [3]: 11 s | Time to Exotherm Peak Max. [3]: 27 s | Photoinduced Potential [1]: 233 mV

hexanediol divinyl ether [HDDVE]
Conversion at Max. ([2]; with EDMAB): 23% | Enthalpy ([2]; with EDMAB): 7.77 kcal/mole eq | Induction Time ([2]; with EDMAB): 51 s | Time to Max. ([2]; with EDMAB): 58 s | Enthalpy ([2]; with EDMAB (parentheses)): 451 J/g | Conversion at Max. ([2]; without EDMAB): 61% | Enthalpy ([2]; without EDMAB): 9.25 kcal/mole eq | Induction Time ([2]; without EDMAB): 80 s | Time to Max. ([2]; without EDMAB): 139 s | Enthalpy ([2]; without EDMAB, OPIA/CQ, 37° C.): 537 J/g
